Data on eight sequences can be found in article PMC2045677, “Thyroid hormone receptor orthologues from invertebrate species with emphasis on Schistosoma mansoni”.

The exact form of at least one protein or probe is not confirmed. For some of these results: A weaker result is weaker than the reference pair of the same experiment. At least one verdict was read from the data and is not stated in words by the source. For some of these results: Where a protein sequence is shown, tags need not be part of it.

The subject of data set [1] is SmRXR1 (Schistosoma mansoni). Description: EMSA. Conditions: EMSA on ice 40 min, 15 µl with 3 µl 5x buffer (5x: 20% glycerol, 5 mM MgCl2, 2.5 mM EDTA, 2.5 mM DTT, 250 mM NaCl, 50 mM Tris-HCl pH 7.5, 0.25 mg/ml poly(dI-dC)); protein translated in vitro; label: 32P.
In data set [2] the target is T1, SmTRβ (Schistosoma mansoni) (UniProt Q2TUU6).
T1 sequence (looked up): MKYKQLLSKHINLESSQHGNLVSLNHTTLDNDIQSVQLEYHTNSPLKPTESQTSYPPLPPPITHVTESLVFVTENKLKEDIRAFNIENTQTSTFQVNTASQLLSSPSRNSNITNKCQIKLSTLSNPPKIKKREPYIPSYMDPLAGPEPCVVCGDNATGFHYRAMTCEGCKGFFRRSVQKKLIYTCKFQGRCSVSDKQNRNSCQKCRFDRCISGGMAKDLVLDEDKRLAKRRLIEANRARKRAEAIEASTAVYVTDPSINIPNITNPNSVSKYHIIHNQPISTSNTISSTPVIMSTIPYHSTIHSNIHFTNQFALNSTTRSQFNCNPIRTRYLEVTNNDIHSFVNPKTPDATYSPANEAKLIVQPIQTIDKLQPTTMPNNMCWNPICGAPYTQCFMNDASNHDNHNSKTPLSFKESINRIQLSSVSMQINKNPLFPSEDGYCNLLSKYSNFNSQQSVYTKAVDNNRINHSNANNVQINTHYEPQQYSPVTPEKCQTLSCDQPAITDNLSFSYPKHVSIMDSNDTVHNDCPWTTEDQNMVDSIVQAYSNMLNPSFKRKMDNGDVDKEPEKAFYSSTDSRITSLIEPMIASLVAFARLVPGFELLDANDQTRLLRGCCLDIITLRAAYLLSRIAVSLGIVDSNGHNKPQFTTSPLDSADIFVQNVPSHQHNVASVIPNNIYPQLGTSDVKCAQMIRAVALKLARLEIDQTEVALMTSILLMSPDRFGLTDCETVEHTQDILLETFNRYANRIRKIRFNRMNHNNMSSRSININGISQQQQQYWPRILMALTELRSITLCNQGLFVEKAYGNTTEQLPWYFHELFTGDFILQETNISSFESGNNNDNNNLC
The data set is described as follows: EMSA. Particulars: EMSA on ice 40 min, 15 µl with 3 µl 5x buffer (5x: 20% glycerol, 5 mM MgCl2, 2.5 mM EDTA, 2.5 mM DTT, 250 mM NaCl, 50 mM Tris-HCl pH 7.5, 0.25 mg/ml poly(dI-dC)); protein translated in vitro; residues 1-847; label: 32P.

Regarding “CCGTAAGGTCAAGGTCACTCG (double strand) [DR0]”, the binding result is “binds” in data set [1] and “binds more weakly” in data set [2].

As to “CCGTAAGGTCACCAGGAGGTCACTCG (double strand) [DR5]”, the values for the binding result in data set [1] and in data set [2] were “binds” and “binds more weakly”, respectively.

“CGCAAGGTCATGACCTCG (double strand) [Pal0]”: the binding result in data set [1] is on record as “binds”; in data set [2] it was “binds more weakly”.

As to “CCGTAAGGTCACAGGAGGTCACTCG (double strand) [DR4]”, the binding result in data set [1] is “binds”; in data set [2], “binds more weakly”.

On to “CCGTAAGGTCACAAGGTCACTCG (double strand) [DR2]”, for which the binding result in data set [1] is recorded as “binds”; in data set [2], “binds more weakly”.

Consider “GTACCGTAAGGTCACTCGCGT (double strand) [half-site]”, for which the binding result is recorded as “binds” in data set [1] and “binds more weakly” in data set [2].

As for “CCGTAAGGTCACAGAGGTCACTCG (double strand) [DR3]”, the binding result in data set [1] was “binds”; in data set [2], “binds more weakly”.

Regarding “CCGTAAGGTCACAGGTCACTCG (double strand) [DR1]”, the binding result is reported as “binds” in data set [1] and “binds more weakly” in data set [2].
